The exact form of at least one protein or probe is not confirmed. A negative result means that nothing was seen under these conditions.
Target: FoxO1 (FKHR)-GST fusion (UniProt Q12778)
Assay: competition with a labelled probe
Details: 100-fold excess did not prevent FoxoGST-IGFBP1 complex; purified recombinant protein; protein details: GST fusion, Upstate

Protein sequences, listed by entry. Tags and fused reporters are not part of them. Lines headed by an entry give the natural chain unless they say otherwise; changes in a name come on top.
UniProt Q12778: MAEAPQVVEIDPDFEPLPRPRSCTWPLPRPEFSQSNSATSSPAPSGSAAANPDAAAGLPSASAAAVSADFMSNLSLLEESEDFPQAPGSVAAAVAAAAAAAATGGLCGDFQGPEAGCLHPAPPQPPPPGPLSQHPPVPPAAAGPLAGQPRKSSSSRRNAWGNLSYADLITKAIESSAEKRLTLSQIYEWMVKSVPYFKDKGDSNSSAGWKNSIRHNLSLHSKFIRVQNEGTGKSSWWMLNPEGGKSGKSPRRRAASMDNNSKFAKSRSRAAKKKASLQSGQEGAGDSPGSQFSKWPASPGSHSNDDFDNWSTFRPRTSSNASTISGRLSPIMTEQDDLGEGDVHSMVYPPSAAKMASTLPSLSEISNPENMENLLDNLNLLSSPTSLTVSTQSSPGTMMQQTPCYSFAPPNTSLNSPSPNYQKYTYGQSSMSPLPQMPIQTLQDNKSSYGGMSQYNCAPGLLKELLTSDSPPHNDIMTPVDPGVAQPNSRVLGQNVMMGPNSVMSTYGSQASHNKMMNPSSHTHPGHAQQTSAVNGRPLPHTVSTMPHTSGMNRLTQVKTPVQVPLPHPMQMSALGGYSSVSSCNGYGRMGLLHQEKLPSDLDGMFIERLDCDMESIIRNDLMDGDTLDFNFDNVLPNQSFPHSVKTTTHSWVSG

## ATTCGATCGGGGCGGGGCGAG / CTCGCCCCGCCCCGATCGTAA [SP1 site oligonucleotide]
  binding result: no binding

Source: US20060069049A1, “Methods and reagents related to foxo” (President and Fellows of Harvard College, priority 2003, published 2006)
